Experimental data reported in patent US7528113B2, “Method and composition for the treatment of adenoviral ocular infections” (priority 1999, dated 2009).
Where two headings read alike, the source gives them in different places. Some results were stated once for a whole list of compounds, not compound by compound. For at least one compound, name, drawing or mass did not settle the structure.

System: Ad37 binding to Chang C conjunctival cells
Assay type: cell-based, adenovirus
Conditions: sialic acid carbohydrates, read-out: Concentration of carbohydrate causing 50% inhibition of Ad37 binding
From the text: Interference of the binding of adenovirus subtype 37 (Ad37) with the first step cellular receptor was studied using dextran sulphate and glycosaminoglycans, such as heparin and heparan sulphates. […] It was thus confirmed that the cellular receptor for Ad37 is (2-3) linked sialic acid.
The effect of glycoproteins to inhibit Ad37 binding to Chang C conjunctival cells was investigated using the following glycoproteins: fetuin, mucin, orosomucoid and glycophorin A. The results are presented in table 2.
The inventors confirmed the inventive concept by determining the inhibition achieved with different carbohydrates, using adenovirus type 37 and Chang C conjunctival cells.
All data are visualised as the dose required for 50% inhibition of adenovirus binding and the maximum inhibition of adenovirus binding.

CC(=O)N[C@H]1[C@H]([C@H](O)[C@H](O)CO)O[C@@](O[C@H]2[C@@H](O)[C@@H](CO)O[C@@H](O[C@H]3[C@H](O[C@@H]4O[C@@H](C)[C@@H](O)[C@@H](O)[C@@H]4O)[C@@H](O)C(O)O[C@@H]3CO)[C@@H]2O)(C(=O)O)C[C@@H]1O (stereo partly drawn) [N-Acetyl Neuraminyl-3-Fucosyl Lactose, α-Neu-5-Ac-(2-3)-β-D-Gal(1-4)-(α-Fuc-(1-3))-Glc]
IC50 (listed as N-acetyl neuraminyl-3-fucosyl lactose): < 10 mM

CC(=O)N[C@H]1[C@H]([C@H](O)[C@H](O)CO)O[C@@](OC[C@H]2O[C@@H](O[C@H]3[C@H](O)[C@@H](NC(C)=O)C(O)O[C@@H]3CO)[C@H](O)[C@@H](O)[C@H]2O)(C(=O)O)C[C@@H]1O (stereo partly drawn) [α-Neu-5Ac-(2-6)-β-D-Gal-(1-4)-D-GlcNAc]
IC50 (listed as 6′N-acetyl neuraminyl N-acetyl lactosamine): < 10 mM

CC(=O)N[C@H]1[C@H]([C@H](O)[C@H](O)CO)O[C@@](O[C@H]2[C@@H](O)[C@@H](CO)O[C@@H](O[C@H]3[C@H](O)[C@@H](NC(C)=O)C(O)O[C@@H]3CO)[C@@H]2O)(C(=O)O)C[C@@H]1O (stereo partly drawn) [α-NeuNAc-(2-3)-β-D-Gal-(1-4)-D-GlcNAc]
IC50 (listed as 3′N-acetyl neuraminyl N-acetyl lactosamine): < 10 mM

Colominic acid
IC50: < 10 mM

N-acetyl-neuraminyllactose
IC50 (listed as N-acetyl neuraminyl lactose): < 10 mM
